Data reported in patent US9187771B2, “Phenylpyruvate reductase and method for manufacturing optically-active phenyllactic acid and 4-hydroxyl-phenyllactic acid using same enzyme” (Asahi Kasei Chemicals Corporation, priority 2011, dated 2015).
For some of these results: The name of at least one read-out is uncertain. At least one structure is not confirmed: it was looked up by name or label, or the drawing left a doubt. Some entries share one result that the patent states for a list of compounds.

What was measured:
[1] = test system: PPR (phenylpyruvate reductase) from Wickerhamia fluorescens TK1; assay: PPR activity measurement with purified PPR enzyme (NADPH decrease at 340 nm); format: biochemical
[2] = test system: Lactobacillus planarum SK002; conditions: cited from earlier work
[3] = test system: GRHPR from Rhizobium etli CFN 42; conditions: cited from earlier work

Structure (SMILES): O=C(O)C(=O)Cc1ccccc1 [Phenylpyruvate, phenylpyruvate]
- reduction of substrate by the PPR enzyme ([1]; NADPH as coenzyme): reduced
- PPA ([1]; Table 9, W. fluorescens TK1): 0.4 mM
- Km ([1]; variable substrate, fixed substrate NADPH, pH 6.5, 25° C.): 400 ± 70 µM
- PPA [2]: 20 mM
- PPA [3]: 0.8 mM

Structure (SMILES): O=CC(=O)O [Glyoxylate]
- kcat/Km ([1]; variable substrate, fixed substrate NADPH): 1000 M⁻¹ s⁻¹

Structure (SMILES): CCCCCCCC/C=C\CCCCCCCC(=O)OCCOCC(OCCO)C1OCC(OCCO)C1OCCO (stereo not shown) [Tween 80]
- PPR activity inhibited ([1]; 1 mM of each substance): 30-50%
